## Library screening results

Data taken from ChEMBL document CHEMBL3988442, “University of Dundee, Small-Polar-MMV Screening Library” (2021).

A: 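Whole-cell assay for inhibitors of Mycobacterium tuberculosis growth, labelled Cornell in the record; the read-out is not stated. The concentration is filed as 10 mM, unlikely as a test dose, so the dose is not known. The record gives no direction; compounds strong in two other growth screens of this library score well above the rest, so higher reads as stronger inhibition. About 53,000 compounds were tested under these conditions; 1.7% (about 900) showed 50% or more at least once.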
B: 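Assay on Mycobacterium tuberculosis, filed only as a heat shock assay from Cornell; the read-out is not stated. The concentration is filed as 10 mM, unlikely as a test dose, so the dose is not known. The record gives no direction; compounds that gave an IC50 in retests scored well above the rest, so higher reads as stronger inhibition. Of about 69,000 compounds tested this way, about 930 (1.4%) reached 50% or more in at least one test.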

Results are given as percent effect.
How 0% and 100% were set is not recorded. Most values in the screen are low, and negative values occur.
This is an unselected part of the compounds tested.

* CC(C)NC(=O)C1CN(Cc2ccsc2)Cc2ccnn2C1.O=C(O)C(F)(F)F.O=C(O)C(F)(F)F (centres undefined) | A: 22.64%; B: -32.05%
* O=C1CC(c2ccccc2)C2(CCN(Cc3ccncc3)CC2)N1 (centres undefined) | A: 1.331%; B: -48.98%
* OCCOc1nc(-c2ccccc2Cl)no1 | A: -21.82%; B: 1.583%
* CN(Cc1ccco1)Cc1cnc2n1CCN(c1ncccn1)CC2.O=C(O)C(F)(F)F | A: 21.43%; B: -19.21%
* CCS(=O)(=O)N1CCC2(CC1)CN(C(=O)N(C)C)Cc1ccccc12 | B: 6.285%
* Cn1ccnc1CN1CCN(Cc2ccc(C#N)cc2F)CC1 | B: -17.58%
* CN(C)c1ncccc1C(=O)N1CCN(C2=NCC(C)(C)S2)CC1 | A: -1.782%; B: 7.314%
* CN(CC(=O)NC(C)(C#N)C1CC1)Cc1nnc(C2CC2)n1C (centres undefined) | A: -0.7344%; B: 8.4%
* O=C(O)C(F)(F)F.O=C(O)C(F)(F)F.[H][C@@]12COC[C@@H](CC(=O)NCc3cccnc3)[C@]1([H])CN(CCOC)C2 | A: -13.01%; B: 27.3%
* O=C(O)C(F)(F)F.[H][C@@]12CCN(c3cccnc3)C[C@]1([H])CN(C(=O)C1CCC1)C2 | A: -17.68%; B: -23.64%
* Cn1cc(CNC(=O)C2COCC(=O)N2Cc2ccccc2)cn1 (centres undefined) | A: 4.903%; B: 0.2956%
* Cc1csc(N2CCN(CC(=O)N3CCCC3)CC2C)n1 (centres undefined) | B: 4.24%
* Cc1noc(C2CCN(CC(=O)N3CCNC(=O)C3)CC2)n1 | A: -15.73%; B: -9.881%
* O=C1CCCN1c1cccc(CNCc2nc(-c3ccco3)no2)c1 | A: 8.787%; B: 0.267%
* CN1CCN(c2cc(NC(=O)Cn3ccc4ccccc43)ncn2)CC1 | A: -26.07%; B: -0.4759%
* CCc1nc(CN2CCCN(C(=O)CCOC(C)C)CC2)cs1 | B: -5.025%
* Cl.Cl.c1ccc(COC[C@H]2CCC[C@@]23CNCCO3)nc1 | A: -25.27%; B: 25.81%
* CCCN(CC)C(=O)c1cc2c(c3ccccc3n2C)n1C(=O)N(C)C | A: 37.42%; B: 9.047%
* COc1ccc2c(c1)CCCN2Cc1nc(C)c(C)o1 | A: 30.77%; B: -5.545%
* COCCNC(=O)N1CCSC2(CCCCC2)C1 | A: -8.407%; B: 21.85%
* CN1CCN(Cc2cccnc2)C2(CCN(Cc3ccoc3)C2)C1=O.O=C(O)C(F)(F)F.O=C(O)C(F)(F)F.O=C(O)C(F)(F)F (centres undefined) | A: 36.55%; B: -27.03%
* Cc1cc(C)n(CCCC(=O)N2CCc3ncc(Cl)cc3C2)n1 | A: -50.08%; B: -18.62%
* Cc1cnc(C2(C)CCN(Cc3csc(C)n3)CC2)s1 | A: 2.534%; B: -17.56%
* O=C1NCCCCC1NC(=O)C1(c2cccc(C(F)(F)F)c2)CC1 (centres undefined) | A: 16.79%; B: -6.025%

Repeated from the top, 2 entries:

Compound	A	B
CC(C)NC(=O)C1CN(Cc2ccsc2)Cc2ccnn2C1.O=C(O)C(F)(F)F.O=C(O)C(F)(F)F (centres undefined)	22.64%	-32.05%
O=C1CC(c2ccccc2)C2(CCN(Cc3ccncc3)CC2)N1 (centres undefined)	1.331%	-48.98%